PubChem BioAssay AID1259254 – NCATS, 2017
The whole screen tested about 59,000 reagents; shown is an unselected part. About 1,550 of them (2.6%) were called active. 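G2 share is only a proxy for re-replication; each gene was hit by three separate siRNAs, and active genes were retested.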 A number with no mark means an inactive call. The numbers tell different reagents against one gene apart. Further read-outs or replicates are left out here. No sequences are given here. The record does not give: the amount of reagent.

- Test: 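Gene knock-downs that lead to re-replication, shown by excess G2 DNA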 (primary screen)
- System: human HCT116 colorectal cancer cells
- Reagent: single siRNA against human genes
- Timing: 3 days
- Detection: 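Nuclei stained with Hoechst and imaged; cell-cycle phase assigned by DNA content; G2 share scaled per plate, non-targeting siRNA 0%, GMNN siRNA 100%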
- Direction: G2 robust z-score: higher = more G2 cells, more excess DNA replication
- Hit rule: 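An siRNA counts as active if its G2 robust z-score lies at least 5 MADs above the screen median; here such calls match roughly 38% of GMNN control or more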

G2 robust z-score, by gene symbol and reagent
BEND7 (BEN domain containing 7): #1 -1.17; #2 -0.224; #3 -0.257
LSM3: #1 -0.373; #2 -0.259; #3 0.209
OR1L6 (olfactory receptor family 1 subfamily L member 6): #1 0.41; #2 -0.536; #3 0.865
RGMA (repulsive guidance molecule BMP co-receptor a): #1 -0.861; #2 -0.281; #3 1.69
ALPP (alkaline phosphatase, placental): #1 -0.857; #2 2.55; #3 8.05 (active)
GET1P1 (GET1 pseudogene 1): #1 7.04 (active); #2 -0.204; #3 -0.58
RFX1 (regulatory factor X1): #1 1.28; #2 -0.501; #3 0.31
KHDRBS1: #1 -0.941; #2 4.94; #3 -0.447
RPL27 (ribosomal protein L27): #1 4.94; #2 3.21; #3 3.25
TAF5L (TATA-box binding protein associated factor 5 like): #1 0.623; #2 -1; #3 -0.127
COMP (cartilage oligomeric matrix protein): #1 -0.124; #2 2.54; #3 -1.15
TGFBR3 (transforming growth factor beta receptor 3): #1 -0.633; #2 0.597; #3 0.827
SYNPR (synaptoporin): #1 1.57; #2 5.17 (active); #3 5.34 (active)
DEFB106A (defensin beta 106A): #1 -0.77; #2 0.831; #3 -0.744

Already shown: an excerpt of the list.
G2 robust z-score, by gene symbol and reagent
ALPP (alkaline phosphatase, placental): #1 -0.857; #2 2.55; #3 8.05 (active)
GET1P1 (GET1 pseudogene 1): #1 7.04 (active); #2 -0.204; #3 -0.58
RFX1 (regulatory factor X1): #1 1.28; #2 -0.501; #3 0.31
KHDRBS1: #1 -0.941; #2 4.94

More reagents:
G2 robust z-score, by gene symbol and reagent
RPL26L1 (ribosomal protein L26 like 1): #1 -1.1; #2 -0.494; #3 3.03
OR2T6 (olfactory receptor family 2 subfamily T member 6): #1 0.282; #2 0.139; #3 0.495
COA3 (cytochrome c oxidase assembly factor 3): #1 0.184; #2 -0.522; #3 6.53 (active)
C9orf40 (chromosome 9 open reading frame 40): #1 2.61; #2 -0.125; #3 -0.424
MTMR8 (myotubularin related protein 8): #1 -0.998; #2 3.18; #3 4.36
SEC23IP (SEC23 interacting protein): #1 -1.19; #2 -0.771; #3 -0.435
RNF25 (ring finger protein 25): #1 1.32; #2 1.07; #3 -0.928
ATG2B (autophagy related 2B): #1 -0.677; #2 0.739; #3 0.188
PCDHA10 (protocadherin alpha 10): #1 2.36; #2 -0.872; #3 1.52
SLC35D3: #1 -0.0324; #2 -0.44; #3 -0.515
LRRN3 (leucine rich repeat neuronal 3): #1 1.45; #2 2.35; #3 0.899
TAFAZZIN (tafazzin, phospholipid-lysophospholipid transacylase): #1 -1.02; #2 1.04; #3 -0.803
DCSTAMP (dendrocyte expressed seven transmembrane protein): #1 -0.824; #2 -0.468; #3 3.72
KDM4B (lysine demethylase 4B): #1 -1.67; #2 -0.407; #3 -0.288
TLX1 (T cell leukemia homeobox 1): #1 -0.646; #2 7.9 (active); #3 0.611
